# Measured values taken from PubChem BioAssay AID624297 (National Center for Advancing Translational Sciences (NCATS), 2012).
# The campaign covered roughly 340,000 compounds. About 6,200 (1.8%) were called active. This list was built around the results that the source calls inconclusive (neither active nor inactive); the mix of calls is not that of the screen. Calls come from the whole dose curve; as a rule, active = well fitted activation curve with a large enough effect; inconclusive = small, poorly fitted or top-dose-only effect; inactive = no such curve, though single readings can be large or run the other way. Potencies beside an inconclusive call are fits to weak or partial responses and may not hold up.
# Assay: A quantitative high throughput screen for small molecules that induce DNA re-replication in SW480 colon adenocarcinoma cells. For re-replication activation: % of control where 0% means no effect. Note: nearly all actives have a fitted effect of over 55% in size.
# Details: Hoechst DNA content imaging, 48 h
# Summary of the method: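 Treated cells incubate 48 hr (37 C, 5% CO2), are stained 40 min with Hoechst, and nuclear fluorescence is enumerated; a rise in nuclei with high DNA signal marks re-replication.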
# [1] = re-replication activation: at 46.1 µM (top of the series)
# Potency is the fitted concentration of half-maximal effect.
structure (smiles),measurement,setting,value
Cc1ccc(C(=O)N/C(=C\Cl)P(=O)(c2ccccc2)c2ccccc2)cc1,Potency,[1],"inconclusive: 29.1 µM [activator, single point]"
CCc1ccc(-c2nn(Cc3ccccc3)cc2C=O)cc1,Potency,[1],active: 4.61 µM
CC(=O)OC1CCC2(C)C(CCC3C2CC(=O)C2(C)C3CC(N3CC3)C2C(C)=O)C1 (stereo not given),Potency,[1],"inconclusive: 29.1 µM [activator, single point]"
N#Cc1cc2c(nc1SCC(=O)Nc1cc(Cl)cc(Cl)c1)C1CCN2CC1,Potency,[1],inactive
Cc1ccc(C(C)C)c(OCCn2c(=O)oc3ccccc32)c1,Potency,[1],"inconclusive: 29.1 µM [activator, single point]"
Cn1c(O)c(C=NC2CCCCC2)c(=O)[nH]c1=S,Potency,[1],"inconclusive: 29.1 µM [activator, single point]"
CC(C)(C)c1ccc(O)c(N=Cc2c(O)ccc3ccccc23)c1,Potency,[1],"inconclusive: 29.1 µM [activator, single point]"
CC1[C@H]2Cc3ccc(O)cc3[C@]1(C)CCN2C (stereo not given in full),Potency,[1],"inconclusive: 0.231 µM [activator, single point]"
COc1ccc(OC)c(-n2c(O)c(C=Nc3c(C)n(C)n(-c4ccccc4)c3=O)c(=O)[nH]c2=O)c1,re-replication activation,at 46.1 µM (top of the series),inactive: 6.37%
same,re-replication activation,[1],inconclusive: -699% [activator]
O=C(N/N=C/c1c(O)n(Cc2ccc(F)cc2)c(=O)[nH]c1=O)c1ccccc1O,Potency,[1],"inconclusive: 29.1 µM [activator, partial curve, poor fit]"
CCOc1ccc(N2C(=O)NC(=O)/C(=C\c3ccccc3[N+](=O)[O-])C2=O)cc1,Potency,[1],"inconclusive: 29.1 µM [activator, single point]"
OCCNc1c2c(nc3ccccc13)CCCC2,Potency,[1],inactive
CCCC12CN3CCN(CC(C3)/C1=N\NC(=O)c1ccncc1)C2,Potency,[1],active: 5.8 µM
CC1=CC(O)C(O)C2(C)C1CC1OC(=O)CC3C(C)C(O)C(=O)C2C13CO (stereo not given),Potency,[1],"inconclusive: 18.4 µM [activator, single point]"
C[N+]1([O-])[C@@H]2CC(OC(=O)[C@@H](CO)c3ccccc3)C[C@@H]1[C@H]1O[C@H]12 (stereo not given in full),Potency,[1],inactive
Cc1c(C(=O)c2cccc3ccccc23)c2cccc3c2n1[C@H](CN1CCOCC1)CO3,Potency,[1],"inconclusive: 1.26 µM [activator, single point]"
COc1ccc(-n2c(O)c(/C=C3\C=Nc4ccc(Br)cc43)c(=O)[nH]c2=O)cc1,Potency,[1],"inconclusive: 29.1 µM [activator, single point]"
O=c1[nH]c(O)c(C=Nc2ccccc2Oc2ccccc2)c(=O)[nH]1,Potency,[1],"inconclusive: 29.1 µM [activator, single point]"
CN(C)C(=O)Oc1ccc(OC(=O)N(C)C)cc1,re-replication activation,[1],inactive: 1.52% [at 9.22 µM]
CCN(CC)C(=O)Oc1ccc(NC(=O)N2CCOCC2)cc1,Potency,[1],"inconclusive: 0.231 µM [activator, full curve, poor fit]"
COc1ccc(-n2c(-c3ccc(C)cc3)nc3ccccc3c2=O)cc1,Potency,[1],inactive
O=P(Nc1cccnc1)(Oc1ccccc1)Oc1ccccc1,Potency,[1],inactive
CN(C)C(=O)Oc1ccc2c(c1)O/C(=C\c1ccc(Cl)cc1)C2=O,Potency,[1],inactive
CCN(CC)S(=O)(=O)c1cc(NC(=O)C(C)N2CC=C(c3ccccc3)CC2)ccc1C (stereo not given),Potency,[1],"inconclusive: 16.4 µM [activator, partial curve, poor fit]"
CC(=O)OCC12CC(OC(=O)CC(C)C)C(C)=CC1OC1C(O)C(OC(C)=O)C2(C)C12CO2 (stereo not given),Potency,[1],"inconclusive: 0.164 µM [activator, full curve, poor fit]"
COc1ccc(SCC2CN(C)CCC2c2ccc(F)cc2)cc1 (stereo not given),Potency,[1],"inconclusive: 20.6 µM [activator, single point]"
CCCOP(=O)(OCCC)c1nc(-c2ccccc2)oc1NCc1ccccc1,Potency,[1],active: 14.6 µM
COC(=O)C1=C(c2ccc(OC(F)(F)F)cc2)C[C@@H]2CC[C@H]1N2C(=O)NCCc1ccccc1,Potency,[1],"inconclusive: 18.4 µM [activator, single point]"
CC1CN=C(NC(C)c2ccccc2)S1 (stereo not given),Potency,[1],"inconclusive: 5.8 µM [activator, single point]"
CN1CCN(c2ccc([N+](=O)[O-])c3no[n+]([O-])c23)CC1,Potency,[1],"inconclusive: 0.231 µM [activator, full curve, poor fit]"
CCC(C)C1NC(=O)C(NC(=O)C(CC(C)C)N(C)C(=O)C2CCCN2C(=O)C(C)O)C(C)OC(=O)C(Cc2ccc(OC)cc2)N(C)C(=O)C2CCCN2C(=O)C(CC(C)C)NC(=O)[C@H](C)C(=O)[C@H](C(C)C)OC(=O)CC1O (stereo not given in full),Potency,[1],"inconclusive: 4.61 µM [activator, full curve, poor fit]"
Cc1ccc(NC2=NCCCS2)c(C)c1C,Potency,[1],inactive
COC(=O)Nc1nc2ccccc2[nH]1,Potency,[1],"inconclusive: 20.6 µM [activator, single point]"
O=C(COC(=O)CCc1c[nH]c2ccccc12)Nc1ccc([N+](=O)[O-])cc1,Potency,[1],inactive
CC1(C)CC2CC(C)(CN2S(=O)(=O)c2cccc(C(=O)OCC(=O)NC(N)=O)c2)C1 (stereo not given),Potency,[1],"inconclusive: 5.8 µM [activator, single point]"
Brc1cc(Br)c(Oc2cc(Br)c(Br)cc2Br)cc1Br,Potency,[1],"inconclusive: 3.66 µM [activator, single point]"
CN(C)C(=S)SC(=S)N(C)C,Potency,[1],active: 2.66 µM
O=C(N/N=C/c1c(O)n(Cc2ccccc2)c(=O)[nH]c1=O)c1ccccc1O,Potency,[1],inactive
CC(C)CCn1c(N)c(C(=O)NCc2cccs2)c2nc3ccccc3nc21,Potency,[1],active: 5.8 µM
O=[N+]([O-])CCO,Potency,[1],inactive
NCCc1cc(O)c(O)cc1O,Potency,[1],"inconclusive: 0.058 µM [activator, partial curve, poor fit]"
CCOP(=O)(OCC)c1nc(-c2cccc3ccccc23)oc1N1CCCCC1,Potency,[1],"inconclusive: 23.1 µM [activator, single point]"
CCC(=NCc1ccc(F)cc1)c1c(O)n(C)c(=O)n(C)c1=O,Potency,[1],inactive
c1ccc2c(CCNC3=NCCC3)c[nH]c2c1,Potency,[1],inactive
CCCCn1c(=O)c(C(=O)NCc2ccc(Cl)cc2)c(O)c2ccccc21,Potency,[1],"inconclusive: 14.6 µM [activator, partial curve, poor fit]"
COC([CH2][Hg])CNC(=O)c1ccccc1OCC(=O)O (stereo not given),Potency,[1],"inconclusive: 3.35 µM [activator, full curve]"
CN(C)CC/C=C1/c2ccccc2Sc2ccc(Cl)cc21,Potency,[1],inactive
Cc1ccc(-n2c(O)c(/C=N/Nc3ccccc3)c(=O)[nH]c2=O)cc1C,Potency,[1],"inconclusive: 18.4 µM [activator, single point]"
Cc1cc(NC(=O)CCl)nn1C,Potency,[1],"inconclusive: 29.1 µM [activator, single point]"
Cc1cc(C)cc(N2C(=O)/C(=C\c3ccc(N4CCN(C)CC4)o3)C(=O)NC2=S)c1,Potency,[1],"inconclusive: 29.1 µM [activator, single point]"
CC(=O)N1CCN(c2ccc(OC[C@H]3CO[C@](Cn4ccnc4)(c4ccc(Cl)cc4Cl)O3)cc2)CC1,Potency,[1],"inconclusive: 11.6 µM [activator, single point]"
Cn1c(O)c(/C=N/Nc2ccccc2)c(=O)n(C)c1=O,Potency,[1],inactive
CCN(CC)CCO,Potency,[1],inactive
CCOC(=O)C1=C(NC(=S)NC(=O)c2ccccc2)c2ccccc2CC12CCCC2,Potency,[1],"inconclusive: 29.1 µM [activator, single point]"
CCN(CC)C(=O)c1ccc(N(Cc2ccccc2)S(C)(=O)=O)cc1,Potency,[1],"inconclusive: 0.731 µM [activator, full curve, poor fit]"
S=P(NCCSCc1ccccc1)(N1CC1)N1CC1,Potency,[1],active: 9.2 µM
O=C(COc1ccc2ccc(=O)oc2c1)N1C[C@H]2C[C@@H](C1)c1cccc(=O)n1C2,Potency,[1],"inconclusive: 9.2 µM [activator, single point]"
Cc1ccc(S(=O)(=O)N(C)CCCC(=O)N2CCN(c3ccccn3)CC2)cc1,Potency,[1],"inconclusive: 25.9 µM [activator, single point]"
COc1ccc(/C=N\N=C(N)N)cc1,Potency,[1],"inconclusive: 29.1 µM [activator, single point]"
Nc1c(C(=O)NCC2CCCO2)c2nc3ccccc3nc2n1Cc1ccco1 (stereo not given),Potency,[1],active: 13 µM
CCOC(=O)C1(CCOc2ccccc2)CCN(Cc2ccc(C)s2)CC1,Potency,[1],"inconclusive: 29.1 µM [activator, single point]"
CSc1ccc(Cl)c(C(=O)OCC(=O)N2CCN(C(=O)c3ccco3)CC2)c1,Potency,[1],"inconclusive: 32.6 µM [activator, partial curve, poor fit]"
CC(=O)Nc1ccccc1C(=O)OCC(=O)c1ccc2c(c1)OCCO2,Potency,[1],inactive
Cc1ccc2occ(CN3CC4CC(C3)c3cccc(=O)n3C4)c(=O)c2c1 (stereo not given),Potency,[1],"inconclusive: 13 µM [activator, partial curve, poor fit]"
O=C(Nc1ccc(Cl)c(C(F)(F)F)c1)NC1CC2CCCC(C1)N2Cc1ccccc1 (stereo not given),Potency,[1],"inconclusive: 23.1 µM [activator, single point]"
CC/C(=C(\c1ccc(O)cc1)c1ccc(OCCN(C)C)cc1)c1ccccc1,Potency,[1],"inconclusive: 11.6 µM [activator, single point]"
CN1CCC(=O)N(CCN=[N+]=[N-])CC1,Potency,[1],inactive
C=CCN1C(=O)NC(=O)/C(=C/C=C/c2ccccc2)C1=O,Potency,[1],"inconclusive: 23.1 µM [activator, single point]"
Cc1cc(OCC(=O)NCc2ccncc2)c2c3c(c(=O)oc2c1)CCC3,Potency,[1],inactive

# Some of the entries above, set out differently.
structure (smiles) | measurement | setting | value
CC(=O)OC1CCC2(C)C(CCC3C2CC(=O)C2(C)C3CC(N3CC3)C2C(C)=O)C1 (stereo not given) | Potency | [1] | inconclusive: 29.1 µM [activator, single point]
Cc1cc(NC(=O)CCl)nn1C | Potency | [1] | inconclusive: 29.1 µM [activator, single point]
Cc1cc(C)cc(N2C(=O)/C(=C\c3ccc(N4CCN(C)CC4)o3)C(=O)NC2=S)c1 | Potency | [1] | inconclusive: 29.1 µM [activator, single point]
